Earlier results, collected in patent US20090156629A1, “INDENOISOQUINOLINE-RELEASABLE POLYMER CONJUGATES” (Enzon Pharmaceuticals, Inc., priority 2006, published 2009).
For at least one compound, name, drawing or mass did not settle the structure.

Test system: standard panel of 12 tumor cell lines (NCI-H23, NCI-H522, MDA-MB-231, MDA-MB-435, SW-620, COLO 205, LOX, UACC-62, OVCAR-3, OVCAR-5, U251 and SF-295)
Conditions: historic data for comparison; cited from earlier work

Cn1nnc2c(C(N)=O)ncn2c1=O [Temozolomide]
Activity: Active
IP + SC score: 28
IP score: 20
SC score: 8
